Measured values taken from doi:10.1101/2021.09.06.459192.
Results are given in words; binding and its absence hold for the method and conditions named. Binding seen in cells or lysates may run through a third protein. Here binding means that the protein was enriched with, or labelled near, the bait; the list need not be complete.

Chains of the proteins cited; added tags and fusions are not shown. Lines headed by an entry give the natural chain unless they say otherwise; changes in a name come on top.
UniProt P42945: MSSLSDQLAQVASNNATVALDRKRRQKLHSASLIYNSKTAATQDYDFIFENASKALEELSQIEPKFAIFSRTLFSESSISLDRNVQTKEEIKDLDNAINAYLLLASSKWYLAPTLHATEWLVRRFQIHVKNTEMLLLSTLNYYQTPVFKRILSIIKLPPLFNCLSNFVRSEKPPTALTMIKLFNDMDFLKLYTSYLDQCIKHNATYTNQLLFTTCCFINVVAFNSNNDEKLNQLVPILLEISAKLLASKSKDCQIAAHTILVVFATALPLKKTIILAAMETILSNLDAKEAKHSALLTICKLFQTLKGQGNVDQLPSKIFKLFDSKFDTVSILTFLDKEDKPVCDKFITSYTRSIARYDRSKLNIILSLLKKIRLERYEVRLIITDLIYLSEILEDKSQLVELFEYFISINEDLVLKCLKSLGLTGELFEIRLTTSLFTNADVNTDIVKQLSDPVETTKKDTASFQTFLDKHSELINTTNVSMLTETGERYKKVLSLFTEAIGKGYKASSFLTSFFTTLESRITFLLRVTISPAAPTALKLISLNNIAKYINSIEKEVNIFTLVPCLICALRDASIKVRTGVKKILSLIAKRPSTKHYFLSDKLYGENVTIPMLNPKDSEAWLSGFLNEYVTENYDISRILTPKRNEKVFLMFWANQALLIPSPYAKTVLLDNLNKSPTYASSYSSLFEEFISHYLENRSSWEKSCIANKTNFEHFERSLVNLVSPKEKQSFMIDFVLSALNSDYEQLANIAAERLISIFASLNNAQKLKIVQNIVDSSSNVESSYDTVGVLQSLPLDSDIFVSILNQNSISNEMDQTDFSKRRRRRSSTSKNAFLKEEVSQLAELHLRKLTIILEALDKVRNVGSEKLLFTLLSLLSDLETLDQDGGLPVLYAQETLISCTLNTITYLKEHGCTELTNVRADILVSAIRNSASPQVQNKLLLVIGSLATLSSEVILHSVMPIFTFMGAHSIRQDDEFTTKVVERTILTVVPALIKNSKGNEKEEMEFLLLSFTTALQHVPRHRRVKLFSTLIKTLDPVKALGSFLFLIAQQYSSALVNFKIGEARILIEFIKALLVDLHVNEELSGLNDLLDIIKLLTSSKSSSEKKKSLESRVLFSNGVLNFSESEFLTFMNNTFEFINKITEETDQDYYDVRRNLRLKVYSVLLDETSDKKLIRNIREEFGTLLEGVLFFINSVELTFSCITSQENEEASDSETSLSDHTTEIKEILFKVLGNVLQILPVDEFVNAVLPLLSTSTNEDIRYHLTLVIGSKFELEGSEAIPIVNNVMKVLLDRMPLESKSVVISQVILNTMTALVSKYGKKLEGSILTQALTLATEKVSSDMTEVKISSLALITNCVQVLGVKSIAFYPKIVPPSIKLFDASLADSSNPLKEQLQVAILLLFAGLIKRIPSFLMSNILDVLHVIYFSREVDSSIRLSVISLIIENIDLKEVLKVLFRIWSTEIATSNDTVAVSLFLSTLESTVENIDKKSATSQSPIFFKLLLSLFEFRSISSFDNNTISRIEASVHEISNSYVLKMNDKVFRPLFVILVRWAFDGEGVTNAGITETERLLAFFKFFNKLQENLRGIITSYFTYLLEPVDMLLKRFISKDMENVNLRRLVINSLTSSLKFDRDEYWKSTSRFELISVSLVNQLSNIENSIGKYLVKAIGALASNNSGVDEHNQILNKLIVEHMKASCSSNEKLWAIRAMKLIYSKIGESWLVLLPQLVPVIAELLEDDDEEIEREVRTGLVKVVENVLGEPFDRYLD
UniProt P20448: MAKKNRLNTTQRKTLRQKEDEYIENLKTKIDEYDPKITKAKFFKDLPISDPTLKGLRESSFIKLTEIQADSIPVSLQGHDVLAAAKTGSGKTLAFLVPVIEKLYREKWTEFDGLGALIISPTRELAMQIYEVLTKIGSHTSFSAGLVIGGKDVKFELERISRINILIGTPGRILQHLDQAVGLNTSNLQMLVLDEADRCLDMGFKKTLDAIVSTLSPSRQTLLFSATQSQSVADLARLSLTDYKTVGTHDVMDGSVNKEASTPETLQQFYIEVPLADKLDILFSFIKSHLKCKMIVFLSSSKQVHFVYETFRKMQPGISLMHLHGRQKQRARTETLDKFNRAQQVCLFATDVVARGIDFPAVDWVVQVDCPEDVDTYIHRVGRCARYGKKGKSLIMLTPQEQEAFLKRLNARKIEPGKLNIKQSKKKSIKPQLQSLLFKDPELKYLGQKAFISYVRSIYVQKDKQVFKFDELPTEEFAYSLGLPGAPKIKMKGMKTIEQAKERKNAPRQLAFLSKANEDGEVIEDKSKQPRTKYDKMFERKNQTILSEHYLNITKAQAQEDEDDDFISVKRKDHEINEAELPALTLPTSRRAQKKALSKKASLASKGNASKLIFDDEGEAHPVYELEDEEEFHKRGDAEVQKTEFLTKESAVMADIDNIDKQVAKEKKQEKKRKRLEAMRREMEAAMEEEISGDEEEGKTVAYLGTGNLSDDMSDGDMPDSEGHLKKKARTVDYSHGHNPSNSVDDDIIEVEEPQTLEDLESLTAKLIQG
UniProt P33442: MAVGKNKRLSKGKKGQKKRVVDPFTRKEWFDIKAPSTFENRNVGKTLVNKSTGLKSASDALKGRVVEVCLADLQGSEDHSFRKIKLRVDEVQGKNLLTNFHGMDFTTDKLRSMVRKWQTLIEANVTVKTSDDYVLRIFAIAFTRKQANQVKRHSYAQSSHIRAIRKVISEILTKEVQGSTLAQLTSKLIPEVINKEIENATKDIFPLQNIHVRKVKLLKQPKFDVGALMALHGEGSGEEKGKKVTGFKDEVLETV

Target: Utp10-TAP (S. cerevisiae) (UniProt P42945)
Assay: affinity purification with mass spectrometry

Substance | binding
Dbp4 (from UniProt P20448 1-770) | binds
Rps1 (from UniProt P33442) | binds
